Measured values from PubChem BioAssay AID504834 (National Center for Advancing Translational Sciences (NCATS), 2011).
The campaign covered roughly 320,000 compounds. About 22,000 (6.9%) were called active. Inconclusive means that the source gave no clear call. Such entries were picked first, then a sample of the others. Calls follow the shape of the dose curve; as a rule, active = well fitted inhibition curve with a large enough effect; inconclusive = small, poorly fitted or top-dose-only effect, or another doubt; inactive = no such curve, though single readings can be large or run the other way. A potency beside an inconclusive call is a rough fit, not a confirmed value.
% is scaled to controls: 0 for no effect and ±100 for the full control effect; potency is read from the fitted curve at half-maximal effect.

Assay: Primary qHTS for delayed death inhibitors of the malarial parasite plastid, 96 hour incubation
Conditions: P. falciparum luciferase reporter growth; series mostly up to 28.7 µM; activity change, negative = inhibition: at the top concentration
How it was run: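 Two-generation exposure (96 h) targets delayed-death phenotype. Reporter parasites carrying integrated firefly luciferase, in red cells at 2% hematocrit and 0.05% parasitemia final, kept at 37 C, 5% CO2; luminescence loss indicates inhibition.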
In the case of Cc1n[nH]c(C)c1S(=O)(=O)N1CCCC(C(=O)NCc2cccs2)C1 (stereo unspecified), the “activity change, negative = inhibition” value was inactive: 28.3%.
With COc1ccccc1C(C)NC(=O)c1ccc(NC(=O)CC2SC(N3CCCC3)=NC2=O)cc1 (stereo unspecified) the Potency was inconclusive: 9.28 µM [inhibitor, single point].
In the case of COc1ccc(CC(=O)Nc2cccc(/C(C)=N/NC(=O)C3(C)CC3(Br)Br)c2)cc1 (stereo unspecified), the Potency was inconclusive: 9.28 µM [inhibitor, partial curve, poor fit].
With CS(=O)(=O)N1CCc2cc(-c3csc(NCC4CCCO4)n3)ccc21 (stereo unspecified) the Potency was inconclusive: 10.4 µM [inhibitor, single point].
With CCOc1ccc(NS(=O)(=O)c2ccc3[nH]cc(C(=O)NCC4CCCO4)c(=O)c3c2)cc1 (stereo unspecified) the Potency was active: 0.0294 µM.
With O=C(NCCS(=O)(=O)NCc1ccc(F)cc1)c1ccccc1 the “activity change, negative = inhibition” value was inactive: 0.0784%.
With CCC(=O)c1ccc(OCC(=O)O)cc1 the Potency was inconclusive: 18.5 µM [inhibitor, single point].
For O=C(NCCO)C(=O)NCC1OCCCN1S(=O)(=O)c1cccs1 (stereo unspecified), the “activity change, negative = inhibition” value was inactive: 15.2%.
With COc1cc2[nH]c(C(=O)N3CC(C)OC(C)C3)cc2c(OC)c1OC (stereo unspecified) the “activity change, negative = inhibition” value was inactive: -2.37%.
With Cc1cs/c(=N/C(=S)Nc2ccccc2)n1C the “activity change, negative = inhibition” value was inactive: 79.7%.
With CCc1ccc(CC)c(S(=O)(=O)Nc2ccc(C(=O)O)c(O)c2)c1 the Potency was inconclusive: 9.28 µM [inhibitor, partial curve, poor fit].
For Cc1cc(C)c(C#N)c(SCc2ccc(F)cc2)n1, the “activity change, negative = inhibition” value was inactive: -2.65%.
With O=C(CN1C(=O)CCC1=O)Nc1nc(-c2ccc(Cl)s2)cs1 the “activity change, negative = inhibition” value was inactive: 8.54%.
For CCCCC(=NCCc1c(C)[nH]c2ccccc12)C1=C(O)CC(c2ccccc2)CC1=O (stereo unspecified), the Potency was inconclusive: 10.4 µM [inhibitor, partial curve, poor fit].
For CC(=O)Nc1cccc(-c2nc3ccccc3o2)c1, the “activity change, negative = inhibition” value was inactive: 0%.
With FC(F)C(F)(F)C(F)(F)C(F)(F)c1cc(-c2ccccc2)n[nH]1 the “activity change, negative = inhibition” value was inactive: 1.28%.
With CC(=O)N1c2ccc(S(=O)(=O)N3CCC(C(=O)Nc4cc(C)ccn4)CC3)cc2CC1C (stereo unspecified) the Potency was inconclusive: 8.28 µM [inhibitor, single point].
With C[C@](O)(CS(=O)(=O)c1ccc(F)cc1)C(=O)Nc1ccc(C#N)c(C(F)(F)F)c1 the Potency was inconclusive: 6.75 µM [inhibitor, partial curve].
For Cc1ccc(/C=C/c2nc3ccccc3[nH]2)o1, the Potency was inconclusive: 0.185 µM [inhibitor, partial curve, poor fit].
For CCN(c1ccc2c(c1)OCO2)S(=O)(=O)c1cc(Br)cc2c1N(C(C)=O)CC2, the Potency was active: 9.28 µM.
In the case of Cc1nc(CC(=O)N/N=C/c2ccc(OCC(=O)O)cc2)cs1, the Potency was inconclusive: 1.31 µM [inhibitor, partial curve, poor fit].
